Data taken from ChEMBL document CHEMBL3988442, “University of Dundee, Small-Polar-MMV Screening Library” (2021).

By UniProt entry, the sequences of proteins in these tests, tags left out.
UniProt E9BF75, entry or part of it: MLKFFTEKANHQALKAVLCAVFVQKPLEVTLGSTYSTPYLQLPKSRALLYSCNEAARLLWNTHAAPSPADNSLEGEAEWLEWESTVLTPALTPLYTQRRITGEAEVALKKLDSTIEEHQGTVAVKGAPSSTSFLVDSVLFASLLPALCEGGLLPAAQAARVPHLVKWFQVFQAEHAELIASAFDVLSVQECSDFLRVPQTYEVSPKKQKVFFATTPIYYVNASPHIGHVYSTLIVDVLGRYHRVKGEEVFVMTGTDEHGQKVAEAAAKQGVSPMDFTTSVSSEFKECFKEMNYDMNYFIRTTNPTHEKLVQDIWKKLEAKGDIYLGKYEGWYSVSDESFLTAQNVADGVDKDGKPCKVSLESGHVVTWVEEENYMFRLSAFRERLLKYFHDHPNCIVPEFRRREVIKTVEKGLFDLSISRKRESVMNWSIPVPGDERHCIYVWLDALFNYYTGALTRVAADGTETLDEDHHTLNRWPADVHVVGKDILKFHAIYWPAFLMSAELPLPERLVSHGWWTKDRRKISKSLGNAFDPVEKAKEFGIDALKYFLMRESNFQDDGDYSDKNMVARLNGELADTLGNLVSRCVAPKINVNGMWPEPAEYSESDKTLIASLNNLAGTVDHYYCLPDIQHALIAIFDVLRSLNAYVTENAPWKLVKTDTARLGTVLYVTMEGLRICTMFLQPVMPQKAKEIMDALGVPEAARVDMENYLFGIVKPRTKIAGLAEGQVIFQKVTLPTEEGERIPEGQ

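Methionyl-tRNA synthetase (putative), Leishmania donovani (UniProt E9BF75). Primary screen of methionyl-tRNA synthetase; the read-out is not stated. The test concentration is not given. Values are per cent inhibition. Of about 68,000 compounds tested this way, about 24 (0.035%) reached 50% or more in at least one test.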

Results are percentages, as filed. How 0% and 100% were set is not recorded. Most values in the screen are low, and negative values occur. This is an unselected part of the compounds tested.

SMILES	Inhibition
COc1ccccc1CCC(=O)N1CCCC(OCc2cccnc2)C1 (stereo not shown)	6.267
CN1CCN(c2cc(N3CCCC3CO)ncn2)Cc2ccccc21 (stereo not shown)	0.3436
COc1ccc(-n2ccc(CNCc3ccc(OC)c(O)c3)n2)cc1	9.89
CC(C)N1CCC2(CC1)CC(NCc1ccccn1)c1ccccc1O2 (stereo not shown)	2.017
COC(=O)[C@@H]1Cc2ncn(C(C)C)c2CN1S(=O)(=O)Cc1ccccc1	6.015
CC(NC(=O)NCCC1=CCCCC1)c1nncn1C (stereo not shown)	18.11
COCC(C)NCc1nc(-c2ccc(C)cc2)c(-c2ccccn2)[nH]1 (stereo not shown)	12.47
CC(C)N1CCc2c(CN(C)Cc3ccco3)cncc2C1	19.67
O=C(C[C@H]1[C@H]2CN(Cc3ccc(F)cc3)C[C@@H]12)N1CCCC1	9.444
Fc1cnc(N2CCCC3(CN(Cc4cccs4)CCO3)C2)nc1 (stereo not shown)	1.648
CCC(=O)Nc1cccc(OCC(=O)N2C[C@H]3CC[C@H]2C3)c1	15.48
Cc1nn(C)c2cnn(CCCNS(=O)(=O)Cc3ccccc3)c12	10.48
CCN(Cc1c(C)nn(C)c1C)C(=O)C1COc2ccccc2C1 (stereo not shown)	8.014
Cc1nc(CN2CCN(C(=O)COCc3ccccc3)CC2)no1	9.294
COCC1c2c(cnn2C)CCN1Cc1ccc(C)o1 (stereo not shown)	7.205
FC(F)(F)c1ccc(-c2cc(NC3CCNCC3)nc3[nH]ccc23)nc1	11.76
COc1ccc(NC(=O)N2CCN(CCSc3ccccc3)CC2)cc1	6.842
O=C(CN1CCN(CC(O)C2CC2)CC1)NCc1ccccc1Cl (stereo not shown)	8.168
O=C(c1cc(F)ccc1O)N1CCN(C(=O)C2CCC2)CC1	17.61
Cc1ccccc1C(=O)NC[C@@H]1CCN(C(=O)C2(O)CCCC2)C[C@H]1O	2.091
CCc1cnc(NCC2OCCc3ccccc32)nc1 (stereo not shown)	1.362
CNC(=O)[C@H]1C[C@@H]2CN(Cc3c(C)noc3C)C[C@@H]2N1C(C)=O	16.81
Cc1ccc(-c2nc(CN3CCCC(Cn4cncn4)C3)no2)cc1 (stereo not shown)	5.226
O=C(NCc1ccccc1)C1=NOC2(CCNC2)C1 (stereo not shown)	4.575
O=C(COc1ccccc1)NS(=O)(=O)Cc1ccccc1	-1.289
CC(=O)NCCCNCc1cc(F)ccc1Br	-7.246
COCC(=O)N1CCCC2(COCCN(CCN(C)C)C2)C1 (stereo not shown)	-7.268
O=C(CCn1cc(Cl)cn1)N1CCCC(O)(CO)CC1 (stereo not shown)	9.322
CCC(CC)N(Cc1ccc2c(c1)OCO2)C(=O)c1ccc(=O)n(C)c1	10.65
CN(CCCOc1ccccc1)S(=O)(=O)N1CCOCC1	10.31
Cc1nc(C)n(C2CCCN(C(=O)c3cn4c(C)cccc4n3)C2)n1 (stereo not shown)	-3.78
Cn1cccc1C(=O)N1CCn2cc(CNC(=O)CC3CC3)nc2C1	15.68
CN(Cc1c(F)cccc1Cl)C(=O)Cn1cnc(C#N)n1	10.08
Cc1ccccc1CC(=O)N(C)CC1(O)CCCN(c2ccccn2)C1 (stereo not shown)	20.71
CCOCCn1nc(C)cc1C(=O)N1CC[C@](O)(CC)[C@H](O)C1	11.37
COCC1CCN(c2nc(C(C)(C)C)nc3c2cnn3C)C1 (stereo not shown)	13.89
CN1CCOC(CNC(=O)CCCOCCc2ccccc2)C1 (stereo not shown)	14.72
Cc1ncoc1C(=O)N1C[C@@H]2COC[C@]2(c2nnc(C3CC3)o2)C1	5.914
CCC(=O)Nc1cccc(OCC(=O)N(C)Cc2nc(C)c[nH]2)c1	11.73
Cc1ccc(C)c2c(O)cc(CNCC(N)=O)nc12	11.38
CC(C)c1ccc2c(c1)C1(CC(=O)Nc3[nH]ncc31)C(=O)N2C (stereo not shown)	5.831
Cc1c(NC(=O)CN2CCN(C3CCCC3)C(=O)C2)cnn1C	15.7
CCNC(=O)CCCC(=O)N1CCc2cc(Cl)cc(Cl)c2C1	5.722
O=C(c1ccnnc1)N1C[C@H](OCC2CC2)[C@H]2COC[C@H]21	7.19
Cc1nnc(NC(=O)CN2CCc3nn(C(C)C)c(=O)cc3C2)s1	10.8
CC(=O)N1CCN(CC(C)(O)c2cccc(C(F)(F)F)c2)CC1 (stereo not shown)	11.93
O=C(c1cccnc1)N1CCC2(CC1)COCCN(c1ncccn1)C2	19.38
CCOC(=O)C1=NOC(Cc2cc(OC)c3c(c2)OCO3)C1 (stereo not shown)	5.706
CC(CO)N(C)C(=O)c1cn(-c2ccc(Br)cc2)cn1 (stereo not shown)	16.99
COCCN(CCOC)C(=O)Nc1cc(C(F)(F)F)c[nH]c1=O	18.29
Cc1n[nH]c(C)c1CCc1n[nH]c(=O)n1Cc1cccs1	2.542
Cc1nnc(NC(=O)CN2CCCC2c2noc(C3CC3)n2)s1 (stereo not shown)	16.39
COCCNC(=O)N1CCOCC1c1c(C)nn(C)c1C (stereo not shown)	5.167
CCc1nn(-c2cc(Oc3cc(C)ccc3C)nc(C)n2)c(N)c1C#N	11.58
CN1CC(=O)N(c2cnn(C)c2)CC12CCN(Cc1cccs1)C2 (stereo not shown)	17.5
Cc1cc(N2CCc3c(ncn3C)C2)nc(N)n1	10.6
Cc1nnc(N2CCC(CCN(C)C)CC2)c(C#N)c1C	20.27
COc1cccc2c1ccn2CCNC(=O)CC(C)C	13.64
CCN(CC)C(=O)c1nc2c(s1)CCN(C(=O)CCC(=O)OC)CC2	11.23
CCN(C(=O)CCCOC)C(c1ccc(Cl)cc1)c1ccccn1 (stereo not shown)	5.352
Cc1ccc(OC2(C(=O)O)CCN(C(=O)c3nc(C)oc3C)CC2)cn1	13.33
CCNc1ncc(C(=O)N2CCOC(CCCc3ccccc3)C2)cn1 (stereo not shown)	2.892
CC(=O)c1ccc(CNC(=O)c2c(C)cc(C)cc2C)nc1C	14.25
CN(C(=O)[C@H]1CSCN1C(=O)OC(C)(C)C)C1CC1	15.57
CCc1ncc(CN2CCOC(Cc3cccc(F)c3)C2)cn1 (stereo not shown)	8.123
CC(=O)N[C@@H]1CN(c2nc(C(N)=O)cs2)C[C@H]1c1ccc(C)o1	10.68
Fc1cnc(N2CCCn3c(nnc3Cn3cccc3)C2)nc1	15.73
O=C(CC1CCCCC1)N1CCN(C(=O)NCc2ccccn2)CC1	15.28
O=C1NCCCCC1Sc1ccc(F)cc1F (stereo not shown)	9.162
CC(C)CC(NCc1ccsc1)c1ccccn1 (stereo not shown)	6.907
COCCN1C[C@@H]2[C@@H](OC)CCN(C(=O)Cc3ccccc3)[C@@H]2C1	7.5
Cc1ccc(-c2ncc(C(=O)N3CCC[C@H](N)C3)c(O)n2)cc1	7.554
CC(C)N(CC(=O)Nc1cccc(C#N)c1)C1CC1	13.24
C=C(C)CNc1ccc(C(=O)N(CC)Cc2nccn2C)cn1	12.06
CC1=C(C#N)C(=O)NC(=O)/C1=C\c1c(C)nn(-c2ccc(Cl)cc2)c1O	11.62
CC(=O)N[C@@H]1Cc2ccccc2[C@H]1Nc1cc(C2CC2)ncn1	0.8174
Cc1cnn(C(C)C2CC2)c1NC(=O)c1ccc(Cn2cnnn2)cc1 (stereo not shown)	8.791
COc1ccc(CN2C[C@H]3CCC[C@@H](CN(C)C)[C@H]3C2)cn1	14.29
Cc1noc(C)c1CN1C[C@@H]2COC[C@@H](C(=O)N3CCCCO3)[C@@H]2C1	11.94
CCOCC(=O)Nc1ccc(N2CCSCC2)cc1C	8.424

The last 8 entries again:

| SMILES | Inhibition |
|---|---|
| `CC(C)N(CC(=O)Nc1cccc(C#N)c1)C1CC1` | 13.24 |
| `C=C(C)CNc1ccc(C(=O)N(CC)Cc2nccn2C)cn1` | 12.06 |
| `CC1=C(C#N)C(=O)NC(=O)/C1=C\c1c(C)nn(-c2ccc(Cl)cc2)c1O` | 11.62 |
| `CC(=O)N[C@@H]1Cc2ccccc2[C@H]1Nc1cc(C2CC2)ncn1` | 0.8174 |
| `Cc1cnn(C(C)C2CC2)c1NC(=O)c1ccc(Cn2cnnn2)cc1` (stereo not shown) | 8.791 |
| `COc1ccc(CN2C[C@H]3CCC[C@@H](CN(C)C)[C@H]3C2)cn1` | 14.29 |
| `Cc1noc(C)c1CN1C[C@@H]2COC[C@@H](C(=O)N3CCCCO3)[C@@H]2C1` | 11.94 |
| `CCOCC(=O)Nc1ccc(N2CCSCC2)cc1C` | 8.424 |